The list shows a part of the results. Hit calls seldom repeat between salt and free forms of one compound.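 Kinases, fused to nanoluciferase, were expressed in K562 cells; luminescence was measured every 4 h from 2 to 18 h as percent of control (DMSO = 100%, positive control = 0%). A time point is decreased if signal falls significantly (2 sigma). Hits were called by the authors by a rule that is not shown; the count of time points alone does not decide it.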
compound: Cn1ncc(Cl)c1-c1cc(C(=O)N[C@H](CN)Cc2cccc(F)c2)sc1Cl [Afuresertib (hydrochloride)]; test: number of time points (of 5) at which kinase-Nluc abundance scored as decreased, DMSO-normalised (count); higher = more persistent destabilization; details: 10 µM; K562; 2-18 h

Amino acid sequences for entries named in this document (tags omitted). A change or cut given only in a name is not applied to a line headed by its entry.
UniProt P07948: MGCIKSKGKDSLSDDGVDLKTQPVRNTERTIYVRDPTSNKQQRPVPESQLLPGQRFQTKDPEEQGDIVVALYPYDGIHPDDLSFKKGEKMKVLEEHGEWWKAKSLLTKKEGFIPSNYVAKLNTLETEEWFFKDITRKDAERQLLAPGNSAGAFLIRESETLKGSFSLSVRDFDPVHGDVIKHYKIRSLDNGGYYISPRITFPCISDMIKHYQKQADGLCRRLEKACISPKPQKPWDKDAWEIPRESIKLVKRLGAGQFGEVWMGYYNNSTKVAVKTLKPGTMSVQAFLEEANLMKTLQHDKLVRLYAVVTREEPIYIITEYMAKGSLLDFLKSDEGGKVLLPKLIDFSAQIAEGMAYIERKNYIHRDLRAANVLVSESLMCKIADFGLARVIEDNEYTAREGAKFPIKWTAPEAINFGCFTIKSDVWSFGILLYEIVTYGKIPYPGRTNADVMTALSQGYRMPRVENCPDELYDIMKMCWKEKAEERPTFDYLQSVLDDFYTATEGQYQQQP
UniProt P53667: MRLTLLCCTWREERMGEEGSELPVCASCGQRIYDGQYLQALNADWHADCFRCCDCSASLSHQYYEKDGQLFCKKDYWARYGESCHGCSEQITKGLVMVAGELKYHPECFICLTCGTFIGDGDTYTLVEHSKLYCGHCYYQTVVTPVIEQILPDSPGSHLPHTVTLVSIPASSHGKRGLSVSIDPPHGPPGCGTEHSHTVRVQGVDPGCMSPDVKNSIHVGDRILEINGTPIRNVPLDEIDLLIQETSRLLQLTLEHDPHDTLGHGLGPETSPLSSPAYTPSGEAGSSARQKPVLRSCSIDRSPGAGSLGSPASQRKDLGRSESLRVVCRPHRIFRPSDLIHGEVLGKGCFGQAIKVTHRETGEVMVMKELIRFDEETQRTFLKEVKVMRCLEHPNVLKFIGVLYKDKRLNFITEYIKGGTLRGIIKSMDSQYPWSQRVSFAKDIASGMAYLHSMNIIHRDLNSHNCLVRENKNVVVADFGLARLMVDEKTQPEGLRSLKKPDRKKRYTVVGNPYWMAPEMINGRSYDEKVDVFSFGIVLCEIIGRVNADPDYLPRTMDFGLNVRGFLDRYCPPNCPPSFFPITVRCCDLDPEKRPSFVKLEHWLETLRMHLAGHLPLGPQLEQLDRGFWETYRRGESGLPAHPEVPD
UniProt P07949, whole entry M918T, looked up: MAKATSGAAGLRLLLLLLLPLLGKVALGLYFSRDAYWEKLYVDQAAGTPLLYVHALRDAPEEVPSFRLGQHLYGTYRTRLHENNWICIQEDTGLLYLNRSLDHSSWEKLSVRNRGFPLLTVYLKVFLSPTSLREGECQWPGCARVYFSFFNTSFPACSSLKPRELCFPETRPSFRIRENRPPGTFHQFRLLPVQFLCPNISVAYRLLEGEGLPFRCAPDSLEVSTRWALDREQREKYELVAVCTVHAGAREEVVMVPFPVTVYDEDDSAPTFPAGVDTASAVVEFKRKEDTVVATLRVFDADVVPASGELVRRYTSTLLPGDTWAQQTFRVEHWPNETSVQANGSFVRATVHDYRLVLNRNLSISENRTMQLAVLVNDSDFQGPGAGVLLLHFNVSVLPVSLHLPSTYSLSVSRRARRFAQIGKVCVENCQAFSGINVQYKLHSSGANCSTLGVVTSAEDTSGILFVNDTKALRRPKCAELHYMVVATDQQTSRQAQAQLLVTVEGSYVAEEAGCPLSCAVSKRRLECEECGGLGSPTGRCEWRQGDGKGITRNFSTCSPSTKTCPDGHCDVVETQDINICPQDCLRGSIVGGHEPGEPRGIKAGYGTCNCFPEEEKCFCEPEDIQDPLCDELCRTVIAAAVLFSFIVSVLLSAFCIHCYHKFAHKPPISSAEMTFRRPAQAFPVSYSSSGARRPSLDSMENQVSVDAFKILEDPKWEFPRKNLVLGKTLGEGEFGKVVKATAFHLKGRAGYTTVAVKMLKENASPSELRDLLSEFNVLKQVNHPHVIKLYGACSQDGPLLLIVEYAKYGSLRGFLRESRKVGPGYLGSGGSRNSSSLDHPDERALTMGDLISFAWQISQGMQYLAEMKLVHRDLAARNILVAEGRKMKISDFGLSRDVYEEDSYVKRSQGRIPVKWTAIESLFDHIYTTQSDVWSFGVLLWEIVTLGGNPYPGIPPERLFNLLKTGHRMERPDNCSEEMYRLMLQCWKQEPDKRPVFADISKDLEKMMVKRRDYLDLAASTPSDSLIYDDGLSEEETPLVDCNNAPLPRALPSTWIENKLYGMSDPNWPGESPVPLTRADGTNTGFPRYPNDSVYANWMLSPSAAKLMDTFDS
UniProt Q96GD4, whole entry: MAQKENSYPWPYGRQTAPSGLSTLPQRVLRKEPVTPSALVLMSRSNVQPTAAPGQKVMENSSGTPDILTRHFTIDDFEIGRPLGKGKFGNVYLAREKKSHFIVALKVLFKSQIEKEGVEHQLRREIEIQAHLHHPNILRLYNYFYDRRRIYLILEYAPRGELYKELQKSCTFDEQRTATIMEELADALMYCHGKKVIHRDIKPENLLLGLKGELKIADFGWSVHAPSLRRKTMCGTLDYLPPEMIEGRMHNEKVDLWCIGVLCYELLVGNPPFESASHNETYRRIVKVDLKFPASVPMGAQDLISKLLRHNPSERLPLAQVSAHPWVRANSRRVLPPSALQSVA
UniProt P21802, whole entry, looked up: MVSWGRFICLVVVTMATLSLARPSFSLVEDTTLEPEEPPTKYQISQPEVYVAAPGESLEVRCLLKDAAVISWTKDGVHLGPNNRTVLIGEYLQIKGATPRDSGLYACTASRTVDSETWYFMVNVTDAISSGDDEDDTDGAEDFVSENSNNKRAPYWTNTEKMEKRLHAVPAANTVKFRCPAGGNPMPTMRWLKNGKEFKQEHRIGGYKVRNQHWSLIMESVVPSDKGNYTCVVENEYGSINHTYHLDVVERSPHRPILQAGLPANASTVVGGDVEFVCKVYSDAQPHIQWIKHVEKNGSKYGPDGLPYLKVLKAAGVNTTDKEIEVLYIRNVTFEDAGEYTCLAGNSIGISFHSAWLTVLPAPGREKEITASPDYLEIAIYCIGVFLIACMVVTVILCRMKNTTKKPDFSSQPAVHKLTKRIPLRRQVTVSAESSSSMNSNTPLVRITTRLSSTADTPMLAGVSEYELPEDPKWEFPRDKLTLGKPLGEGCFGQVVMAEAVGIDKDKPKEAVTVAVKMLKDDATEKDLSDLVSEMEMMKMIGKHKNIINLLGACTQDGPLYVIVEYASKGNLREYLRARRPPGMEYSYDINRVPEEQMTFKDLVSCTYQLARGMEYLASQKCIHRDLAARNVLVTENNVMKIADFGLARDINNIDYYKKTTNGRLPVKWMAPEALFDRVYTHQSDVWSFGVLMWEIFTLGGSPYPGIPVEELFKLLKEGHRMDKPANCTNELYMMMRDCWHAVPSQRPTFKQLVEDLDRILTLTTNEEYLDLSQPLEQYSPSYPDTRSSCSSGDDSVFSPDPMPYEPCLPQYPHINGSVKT
UniProt Q9UQM7, whole entry: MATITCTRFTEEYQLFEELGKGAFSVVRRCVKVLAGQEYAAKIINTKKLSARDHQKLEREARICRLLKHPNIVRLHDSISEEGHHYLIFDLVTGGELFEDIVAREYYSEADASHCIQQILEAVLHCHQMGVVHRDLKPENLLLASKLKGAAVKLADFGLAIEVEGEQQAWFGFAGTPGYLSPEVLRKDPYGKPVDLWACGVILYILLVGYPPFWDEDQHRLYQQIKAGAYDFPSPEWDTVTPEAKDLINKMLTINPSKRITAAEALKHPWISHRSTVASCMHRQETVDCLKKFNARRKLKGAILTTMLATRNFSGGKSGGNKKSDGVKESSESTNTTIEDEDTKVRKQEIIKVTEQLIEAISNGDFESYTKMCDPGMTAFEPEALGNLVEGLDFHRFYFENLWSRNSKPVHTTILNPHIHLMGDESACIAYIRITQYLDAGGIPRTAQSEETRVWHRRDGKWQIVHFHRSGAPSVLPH
UniProt O96013: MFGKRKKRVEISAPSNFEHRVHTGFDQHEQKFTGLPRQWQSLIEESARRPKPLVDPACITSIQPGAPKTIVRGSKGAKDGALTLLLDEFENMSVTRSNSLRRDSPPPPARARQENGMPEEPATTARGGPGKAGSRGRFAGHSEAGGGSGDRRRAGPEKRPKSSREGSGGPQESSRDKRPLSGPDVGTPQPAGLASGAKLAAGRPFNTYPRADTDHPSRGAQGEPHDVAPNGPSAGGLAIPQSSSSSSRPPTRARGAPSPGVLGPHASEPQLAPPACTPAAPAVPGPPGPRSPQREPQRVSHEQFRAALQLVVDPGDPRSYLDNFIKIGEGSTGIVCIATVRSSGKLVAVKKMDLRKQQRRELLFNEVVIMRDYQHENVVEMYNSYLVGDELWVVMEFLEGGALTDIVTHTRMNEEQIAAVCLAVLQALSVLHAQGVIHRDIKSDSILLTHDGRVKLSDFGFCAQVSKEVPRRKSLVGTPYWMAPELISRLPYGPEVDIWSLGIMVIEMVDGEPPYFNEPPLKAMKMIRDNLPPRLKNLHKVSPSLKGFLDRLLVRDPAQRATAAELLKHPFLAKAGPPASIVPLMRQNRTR
UniProt P43403: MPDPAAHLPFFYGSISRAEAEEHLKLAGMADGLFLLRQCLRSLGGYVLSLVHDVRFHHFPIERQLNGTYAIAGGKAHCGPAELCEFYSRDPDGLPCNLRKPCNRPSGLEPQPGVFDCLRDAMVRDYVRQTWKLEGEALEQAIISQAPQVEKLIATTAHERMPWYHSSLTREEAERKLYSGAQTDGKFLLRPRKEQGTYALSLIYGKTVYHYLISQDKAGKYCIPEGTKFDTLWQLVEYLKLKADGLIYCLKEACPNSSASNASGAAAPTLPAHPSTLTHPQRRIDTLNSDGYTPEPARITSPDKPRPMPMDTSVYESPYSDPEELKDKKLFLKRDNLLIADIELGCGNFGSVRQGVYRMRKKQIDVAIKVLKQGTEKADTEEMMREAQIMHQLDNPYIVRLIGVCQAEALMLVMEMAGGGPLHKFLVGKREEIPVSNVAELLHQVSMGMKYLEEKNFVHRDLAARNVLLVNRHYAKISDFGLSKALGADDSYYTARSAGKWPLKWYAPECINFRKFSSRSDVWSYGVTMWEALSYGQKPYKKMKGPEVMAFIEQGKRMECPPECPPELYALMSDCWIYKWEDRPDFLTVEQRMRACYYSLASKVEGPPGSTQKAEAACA
UniProt P31749: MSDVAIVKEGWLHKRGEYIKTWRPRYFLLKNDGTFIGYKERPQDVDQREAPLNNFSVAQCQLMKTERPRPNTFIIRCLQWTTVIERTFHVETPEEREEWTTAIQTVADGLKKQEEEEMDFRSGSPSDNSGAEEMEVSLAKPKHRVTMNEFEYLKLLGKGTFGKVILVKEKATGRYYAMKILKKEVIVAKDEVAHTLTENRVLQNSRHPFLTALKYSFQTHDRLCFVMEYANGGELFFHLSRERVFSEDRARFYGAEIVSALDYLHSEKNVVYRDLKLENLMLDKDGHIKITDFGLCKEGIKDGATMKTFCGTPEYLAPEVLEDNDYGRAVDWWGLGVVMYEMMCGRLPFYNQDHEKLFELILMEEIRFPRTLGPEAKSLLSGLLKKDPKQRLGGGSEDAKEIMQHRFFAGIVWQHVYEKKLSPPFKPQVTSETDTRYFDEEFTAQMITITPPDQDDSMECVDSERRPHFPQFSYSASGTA
UniProt Q15131: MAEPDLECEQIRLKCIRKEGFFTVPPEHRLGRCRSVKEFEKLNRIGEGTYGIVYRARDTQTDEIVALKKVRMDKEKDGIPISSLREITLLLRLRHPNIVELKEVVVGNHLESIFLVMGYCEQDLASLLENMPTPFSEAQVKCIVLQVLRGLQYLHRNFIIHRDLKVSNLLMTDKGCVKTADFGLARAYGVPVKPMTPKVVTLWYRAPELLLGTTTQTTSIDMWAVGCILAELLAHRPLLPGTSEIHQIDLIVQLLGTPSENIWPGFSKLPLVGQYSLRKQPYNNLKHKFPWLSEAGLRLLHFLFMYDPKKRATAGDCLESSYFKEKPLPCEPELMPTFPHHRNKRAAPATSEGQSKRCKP
UniProt Q9NYA1, whole entry: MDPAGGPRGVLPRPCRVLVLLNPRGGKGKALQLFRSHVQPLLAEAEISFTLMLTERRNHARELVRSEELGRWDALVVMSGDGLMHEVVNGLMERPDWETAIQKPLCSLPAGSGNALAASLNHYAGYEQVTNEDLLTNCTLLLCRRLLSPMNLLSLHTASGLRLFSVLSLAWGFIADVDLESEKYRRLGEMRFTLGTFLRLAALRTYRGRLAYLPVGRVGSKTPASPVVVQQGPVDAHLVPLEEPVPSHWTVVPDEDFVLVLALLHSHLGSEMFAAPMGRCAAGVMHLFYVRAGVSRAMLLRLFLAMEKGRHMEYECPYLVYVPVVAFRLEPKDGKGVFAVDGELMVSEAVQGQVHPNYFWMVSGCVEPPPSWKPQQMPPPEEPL

Question: Which “number of time points” value does the source give for CAMK2G (UniProt Q13555) here?
Answer: Its value is 0.

Question: How did the “number of time points” value turn out when PDPK1 (UniProt O15530) was run?
Answer: The value was 0.

Question: For LYN (UniProt P07948), which “number of time points” value is on record?
Answer: The value was 0.

Question: How did the “number of time points” value turn out when EGFR_T790M (UniProt P00533) was run?
Answer: Its value is 0.

Question: For LIMK1 (UniProt P53667), which “number of time points” value is on record?
Answer: Its value is 0.

Question: With AURKA (UniProt O14965) as the target, how does the “number of time points” value read?
Answer: The value was 2.

Question: For HER2 (UniProt P04626), which “number of time points” value is on record?
Answer: The value was 0.

Question: “RET_M918T (clone: RET_mut) (UniProt P07949)” was tested. Which “number of time points” value did it give?
Answer: Its value is 0.

Question: How did the “number of time points” value turn out when AURKB (UniProt Q96GD4) was run?
Answer: Its value is 0.

Question: SYK (UniProt P43405) was tested. Which “number of time points” value did it give?
Answer: Its value is 0.

Question: With FGFR2 (UniProt P21802) as the target, how does the “number of time points” value read?
Answer: The value was 0.

Question: CAMK2A (UniProt Q9UQM7) was tested. Which “number of time points” value did it give?
Answer: Its value is 0.

Question: How did the “number of time points” value turn out when CSF1R (UniProt P07333) was run?
Answer: The value was 0.

Question: How did the “number of time points” value turn out when PAK4 (UniProt O96013) was run?
Answer: The value was 0.

Question: FGFR3 (UniProt P22607) was tested. Which “number of time points” value did it give?
Answer: The value was 0.

Question: For PLK1 (UniProt P53350), which “number of time points” value is on record?
Answer: The value was 0.

Question: For SRC (UniProt P12931), which “number of time points” value is on record?
Answer: The value was 0.

Question: LMTK2 (UniProt Q8IWU2) was tested. Which “number of time points” value did it give?
Answer: Its value is 0.

Question: With LCK (UniProt P06239) as the target, how does the “number of time points” value read?
Answer: Its value is 0.

Question: For DYRK1B (UniProt Q9Y463), which “number of time points” value is on record?
Answer: Its value is 0.

Question: For “RAF1_S257L (clone: RAF1_mut) (UniProt P04049)”, which “number of time points” value is on record?
Answer: The value was 2.

Question: For EGFR_L718V (UniProt P00533), which “number of time points” value is on record?
Answer: Its value is 0.

Question: For JAK1 (UniProt P23458), which “number of time points” value is on record?
Answer: The value was 0.

Question: With BRAF_V600E as the target, how does the “number of time points” value read?
Answer: The value was 0.

Question: With LIMK2 (UniProt P53671) as the target, how does the “number of time points” value read?
Answer: The value was 1.

Question: For BRAF (UniProt P15056), which “number of time points” value is on record?
Answer: Its value is 0.

Question: With ZAP70 (UniProt P43403) as the target, how does the “number of time points” value read?
Answer: Its value is 0.

Question: For AKT1 (UniProt P31749), which “number of time points” value is on record?
Answer: The value was 0.

Question: EGFR_L858R (UniProt P00533) was tested. Which “number of time points” value did it give?
Answer: Its value is 0.

Question: For RIPK1 (UniProt Q13546), which “number of time points” value is on record?
Answer: Its value is 1.

Question: How did the “number of time points” value turn out when CDK10 (UniProt Q15131) was run?
Answer: The value was 0.

Question: Which “number of time points” value does the source give for SPHK1 (UniProt Q9NYA1) here?
Answer: The value was 0.

compound: Cn1ncc(Cl)c1-c1cc(C(=O)N[C@H](CN)Cc2cccc(F)c2)sc1Cl [Afuresertib]; test: as above; details: 10 µM; K562; 2-18 h

Question: With CAMK2G (UniProt Q13555) as the target, how does the “number of time points” value read?
Answer: The value was 0.

Question: PDPK1 (UniProt O15530) was tested. Which “number of time points” value did it give?
Answer: The value was 0.

Question: Which “number of time points” value does the source give for LYN (UniProt P07948) here?
Answer: The value was 0.

Question: EGFR_T790M (UniProt P00533) was tested. Which “number of time points” value did it give?
Answer: The value was 0.

Question: LIMK1 (UniProt P53667) was tested. Which “number of time points” value did it give?
Answer: The value was 0.

Question: With AURKA (UniProt O14965) as the target, how does the “number of time points” value read?
Answer: The value was 0.

Question: HER2 (UniProt P04626) was tested. Which “number of time points” value did it give?
Answer: Its value is 0.

Question: With “RET_M918T (clone: RET_mut) (UniProt P07949)” as the target, how does the “number of time points” value read?
Answer: The value was 0.

Question: Which “number of time points” value does the source give for AURKB (UniProt Q96GD4) here?
Answer: The value was 0.

Question: SYK (UniProt P43405) was tested. Which “number of time points” value did it give?
Answer: Its value is 0.

Question: FGFR2 (UniProt P21802) was tested. Which “number of time points” value did it give?
Answer: Its value is 0.

Question: Which “number of time points” value does the source give for CAMK2A (UniProt Q9UQM7) here?
Answer: Its value is 0.

Question: For CSF1R (UniProt P07333), which “number of time points” value is on record?
Answer: Its value is 0.

Question: With PAK4 (UniProt O96013) as the target, how does the “number of time points” value read?
Answer: The value was 0.

Question: For FGFR3 (UniProt P22607), which “number of time points” value is on record?
Answer: The value was 0.

Question: Which “number of time points” value does the source give for PLK1 (UniProt P53350) here?
Answer: The value was 0.

Question: SRC (UniProt P12931) was tested. Which “number of time points” value did it give?
Answer: The value was 0.

Question: How did the “number of time points” value turn out when LMTK2 (UniProt Q8IWU2) was run?
Answer: The value was 0.

Question: LCK (UniProt P06239) was tested. Which “number of time points” value did it give?
Answer: Its value is 0.

Question: For DYRK1B (UniProt Q9Y463), which “number of time points” value is on record?
Answer: The value was 0.

Question: How did the “number of time points” value turn out when “RAF1_S257L (clone: RAF1_mut) (UniProt P04049)” was run?
Answer: Its value is 0.

Question: For EGFR_L718V (UniProt P00533), which “number of time points” value is on record?
Answer: The value was 0.

Question: How did the “number of time points” value turn out when JAK1 (UniProt P23458) was run?
Answer: Its value is 0.

Question: With BRAF_V600E as the target, how does the “number of time points” value read?
Answer: Its value is 0.

Question: LIMK2 (UniProt P53671) was tested. Which “number of time points” value did it give?
Answer: Its value is 0.

Question: How did the “number of time points” value turn out when BRAF (UniProt P15056) was run?
Answer: The value was 0.

Question: With ZAP70 (UniProt P43403) as the target, how does the “number of time points” value read?
Answer: Its value is 0.

Question: Which “number of time points” value does the source give for AKT1 (UniProt P31749) here?
Answer: Its value is 0.

Question: With EGFR_L858R (UniProt P00533) as the target, how does the “number of time points” value read?
Answer: Its value is 0.

Question: How did the “number of time points” value turn out when RIPK1 (UniProt Q13546) was run?
Answer: The value was 0.

Question: With CDK10 (UniProt Q15131) as the target, how does the “number of time points” value read?
Answer: The value was 0.

Question: SPHK1 (UniProt Q9NYA1) was tested. Which “number of time points” value did it give?
Answer: Its value is 0.
